Drawing on doi:10.1101/2025.03.24.645063, this text covers binding for 1 molecule.

Chains of the proteins cited; added tags and fusions are not shown. Lines headed by an entry give the natural chain unless they say otherwise; changes in a name come on top.
UniProt Q96SW2: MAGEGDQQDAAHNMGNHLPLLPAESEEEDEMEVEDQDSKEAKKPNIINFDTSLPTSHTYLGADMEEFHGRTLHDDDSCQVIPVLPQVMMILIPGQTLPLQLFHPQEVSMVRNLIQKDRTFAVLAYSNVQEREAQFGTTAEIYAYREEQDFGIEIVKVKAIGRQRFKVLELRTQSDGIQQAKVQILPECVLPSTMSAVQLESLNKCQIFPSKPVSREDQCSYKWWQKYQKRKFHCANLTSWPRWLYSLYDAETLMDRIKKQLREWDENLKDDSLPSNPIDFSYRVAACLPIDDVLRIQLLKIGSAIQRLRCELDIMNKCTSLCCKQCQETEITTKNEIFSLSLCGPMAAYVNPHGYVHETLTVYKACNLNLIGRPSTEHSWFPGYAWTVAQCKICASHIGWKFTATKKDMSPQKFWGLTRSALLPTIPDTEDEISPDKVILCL

Results are given in words; binding and its absence hold for the method and conditions named.

This experiment addresses CRBN/DDB1 complex (UniProt Q96SW2). Nature of the experiment: FRET or BRET; TR-FRET displacement: 20 nM CoraFluor-1-labeled CRBN/DDB1 and 200 nM thal-FITC tracer; UROD reaction mixtures (with PCMT1 or PCMT1 S60A, 17.5 h) titrated 1:3; 25 mM HEPES, 150 mM NaCl, 0.5 mg/mL BSA, 0.005% TWEEN 20, pH 7.5; read after 2 h; both purified.

B1: UROD N367A (protein, UniProt P06132 1-367)
chain: MEANGLGPQGFPELKNDTFLRAAWGEETDYTPVWCMRQAGRYLPEFRETRAAQDFFSTCRSPEACCELTLQPLRRFPLDAAIIFSDILVVPQALGMEVTMVPGKGPSFPEPLREEQDLERLRDPEVVASELGYVFQAITLTRQRLAGRVPLIGFAGAPWTLMTYMVEGGGSSTMAQAKRWLYQRPQASHQLLRILTDALVPYLVGQVVAGAQALQLFESHAGHLGPQLFNKFALPYIRDVAKQVKARLREAGLAPVPMIIFAKDGHFALEELAQAGYEVVGLDWTVAPKKARECVGKTVTLQGNLDPCALYASEEEIGQLVKQMLDDFGPHRYIANLGHGLYPDMDPEHVGAFVDAVHKHSRLLRQA
In the case of B1, the binding entry is on record as “no binding”.
